Data reported in US20230212510A1, “METHODS FOR ORGANOIDS PRODUCTION” (CITY OF HOPE, priority 2020, published 2023).
Some of these results come from one statement about several compounds together. At least one compound was matched to its structure with a doubt left.

System: HMEC organoids in microcontainers
Assay: Inhibitor treatment of contractile mammary organoids, contractions counted by time-lapse microscopy
Assay type: cell-based, human
Details: within 12 hours; FIG. 5H (2 μM)
Method: Contraction temporal analysis: Organoid contractions were quantified either by hand or by brightness change analysis, as indicated. For brightness change analysis, time-lapse movies were taken, and the time-derivative of the whole-field image brightness was calculated. Local maxima in the time-derivative were interpreted as contractions and spot-checked by eye.
Contractile function implies the presence of contractility-associated structural proteins. […] The association between contractility and ASMA expression was tested with inhibitor experiments. Contractile organoids were treated with either latrunculin B or jasplakinolide, inhibitors of cytoskeleton dynamics that either promote or inhibit actin polymerization, […]. […] Next, organoids were treated with ML-7, an inhibitor of the smooth muscle myosin light-chain kinase that interacts with ASMA.

SMILES | inhibition of contractions [%]
C/C1=C/C(=O)O[C@@H]2C[C@@H](CC[C@H](C)/C=C\CC1)O[C@@](O)([C@@H]1CSC(=O)N1)C2 [latrunculin B, Latrunculin B] | > 90
C/C1=C\[C@H](C)C[C@H](C)OC(=O)C[C@H](c2ccc(O)cc2)NC(=O)[C@@H](Cc2c(Br)[nH]c3ccccc23)N(C)C(=O)[C@H](C)NC(=O)[C@@H](C)C1 [jasplakinolide, Jasplakinolide] | > 90
